The source of these data is doi:10.1101/2022.11.03.515015.

Amino acid sequences for entries named in this document (tags omitted).
UniProt O95071: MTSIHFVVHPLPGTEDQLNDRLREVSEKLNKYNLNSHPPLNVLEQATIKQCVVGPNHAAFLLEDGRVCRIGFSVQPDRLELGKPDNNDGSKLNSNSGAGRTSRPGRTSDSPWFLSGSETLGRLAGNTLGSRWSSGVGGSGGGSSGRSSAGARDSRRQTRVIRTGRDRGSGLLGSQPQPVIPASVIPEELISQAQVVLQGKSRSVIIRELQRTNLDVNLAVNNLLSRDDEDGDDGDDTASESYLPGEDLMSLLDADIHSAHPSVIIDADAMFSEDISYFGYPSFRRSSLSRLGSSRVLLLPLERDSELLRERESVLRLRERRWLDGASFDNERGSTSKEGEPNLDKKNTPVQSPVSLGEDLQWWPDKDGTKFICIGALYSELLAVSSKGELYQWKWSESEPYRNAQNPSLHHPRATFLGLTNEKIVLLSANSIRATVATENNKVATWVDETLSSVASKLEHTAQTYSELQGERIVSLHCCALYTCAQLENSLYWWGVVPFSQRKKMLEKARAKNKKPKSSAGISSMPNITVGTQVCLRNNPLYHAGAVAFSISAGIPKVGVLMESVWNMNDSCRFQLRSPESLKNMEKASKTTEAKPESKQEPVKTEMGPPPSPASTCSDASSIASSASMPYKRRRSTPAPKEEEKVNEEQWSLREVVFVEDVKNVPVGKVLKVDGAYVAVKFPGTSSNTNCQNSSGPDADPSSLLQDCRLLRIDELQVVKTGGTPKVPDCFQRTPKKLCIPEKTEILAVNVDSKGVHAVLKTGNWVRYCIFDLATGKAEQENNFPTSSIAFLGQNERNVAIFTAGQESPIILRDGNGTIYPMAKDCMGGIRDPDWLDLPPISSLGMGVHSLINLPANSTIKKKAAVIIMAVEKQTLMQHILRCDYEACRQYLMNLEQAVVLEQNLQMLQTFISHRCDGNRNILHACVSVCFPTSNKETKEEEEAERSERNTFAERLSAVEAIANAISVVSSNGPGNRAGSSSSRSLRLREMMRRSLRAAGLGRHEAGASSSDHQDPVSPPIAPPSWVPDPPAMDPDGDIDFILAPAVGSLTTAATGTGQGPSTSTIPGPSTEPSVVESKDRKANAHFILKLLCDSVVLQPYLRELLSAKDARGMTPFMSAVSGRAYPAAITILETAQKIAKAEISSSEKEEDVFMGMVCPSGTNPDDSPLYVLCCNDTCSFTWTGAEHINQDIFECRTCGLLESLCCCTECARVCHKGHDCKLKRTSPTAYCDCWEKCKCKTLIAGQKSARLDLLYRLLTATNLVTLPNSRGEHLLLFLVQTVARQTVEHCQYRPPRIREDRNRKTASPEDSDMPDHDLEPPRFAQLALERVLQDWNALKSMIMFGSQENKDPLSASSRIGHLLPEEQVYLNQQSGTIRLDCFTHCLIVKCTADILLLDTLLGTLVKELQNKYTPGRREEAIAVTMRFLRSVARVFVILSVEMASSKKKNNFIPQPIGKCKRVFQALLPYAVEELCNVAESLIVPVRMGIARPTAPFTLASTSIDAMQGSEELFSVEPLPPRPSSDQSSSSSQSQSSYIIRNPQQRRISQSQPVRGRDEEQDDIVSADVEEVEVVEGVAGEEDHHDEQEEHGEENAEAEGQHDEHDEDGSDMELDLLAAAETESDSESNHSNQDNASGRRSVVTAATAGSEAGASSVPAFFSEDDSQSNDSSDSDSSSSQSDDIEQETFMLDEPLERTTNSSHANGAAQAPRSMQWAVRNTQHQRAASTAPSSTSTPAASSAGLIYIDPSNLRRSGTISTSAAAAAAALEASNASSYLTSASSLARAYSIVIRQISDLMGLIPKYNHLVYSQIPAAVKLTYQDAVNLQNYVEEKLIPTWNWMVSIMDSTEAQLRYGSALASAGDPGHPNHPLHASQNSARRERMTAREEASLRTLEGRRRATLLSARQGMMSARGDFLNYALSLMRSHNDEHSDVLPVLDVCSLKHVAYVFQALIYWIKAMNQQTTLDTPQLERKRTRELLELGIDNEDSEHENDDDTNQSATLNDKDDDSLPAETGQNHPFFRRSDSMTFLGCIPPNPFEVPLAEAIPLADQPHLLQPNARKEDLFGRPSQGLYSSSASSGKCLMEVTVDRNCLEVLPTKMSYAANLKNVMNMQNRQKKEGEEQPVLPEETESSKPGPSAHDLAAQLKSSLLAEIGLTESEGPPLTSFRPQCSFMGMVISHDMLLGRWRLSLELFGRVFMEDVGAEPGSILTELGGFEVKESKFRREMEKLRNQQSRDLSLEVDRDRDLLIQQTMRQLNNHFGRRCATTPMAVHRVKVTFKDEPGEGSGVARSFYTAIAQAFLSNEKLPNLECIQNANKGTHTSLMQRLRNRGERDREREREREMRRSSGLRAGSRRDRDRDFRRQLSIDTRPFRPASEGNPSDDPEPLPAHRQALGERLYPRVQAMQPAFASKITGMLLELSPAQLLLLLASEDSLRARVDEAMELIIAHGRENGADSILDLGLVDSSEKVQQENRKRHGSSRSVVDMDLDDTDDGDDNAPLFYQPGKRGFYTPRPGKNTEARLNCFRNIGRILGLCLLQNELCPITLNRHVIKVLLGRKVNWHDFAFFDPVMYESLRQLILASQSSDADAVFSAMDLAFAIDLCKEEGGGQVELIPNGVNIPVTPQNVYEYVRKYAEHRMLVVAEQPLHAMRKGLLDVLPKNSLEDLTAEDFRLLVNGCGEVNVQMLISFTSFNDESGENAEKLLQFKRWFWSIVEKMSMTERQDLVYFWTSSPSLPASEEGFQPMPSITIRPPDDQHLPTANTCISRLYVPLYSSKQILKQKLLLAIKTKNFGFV

These are yes or no findings as the source states them, for the method shown.

This test has as its target full-length human UBR5 (construct for activity assays: double strep tag, 3C site, UBR5) (human) (UniProt O95071). The test is described as follows: co-sedimentation.

B1: Securin (protein, UniProt O95997 1-202)
chain: MATLIYVDKENGEPGTRVVAKDGLKLGSGPSIKALDGRSQVSTPRFGKTFDAPPALPKATRKALGTVNRATEKSVKTKGPLKQKQPSFSAKKMTEKTVKAKSSVPASDDAYPEIEKFFPFNPLDFESFDLPEEHQIAHLPLSGVPLMILDEERELEKLFQLGPPSPVKMPSPPWESNLLQSPSSILSTLDVELPPVCCDIDI
modifications: FAM label
On to B1, for which the binding result is “no binding (tested: 40 pmol)”.
